Reference: publication PMC8428225 (Cancers, 2021)

System: H3K27me3 in Pfeiffer cells
Experiment: H3K27 trimethylation assay
Type: cell-based
Settings: Homo sapiens, 72 h, 3 days, Mean ± SD
Experimental: After incubation with the testing compound, H3K27 trimethylation in cells was examined with H3K27me3 Cellular Assay Kit (Cisbio, 62KC3PAE). IC50 value was calculated using GraphPad Prism by plotting the log(compound) concentrations versus percent inhibition of H3K27me3.

IC50: 4.13 ± 0.59 nM
SMILES: CCN(c1cc(-c2ccc(CN3CCOCC3)cc2)cc(C(=O)NCc2c(C)cc(C)[nH]c2=O)c1C)C1CCOCC1 [EPZ-6438, reference compound]
